# PubChem BioAssay AID1259261 – Sanger Institute | 2017
# Screen: 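Find kinase silencing that cuts viability alone or with anchor drugs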 (primary screen)
# Cells: HCC2998 human colorectal cancer cells
# Reagents: siRNA pool against human genes
# Challenge: anchor drugs BYL719 1 µM, cetuximab 5 µg/ml or trametinib 10 nM, each compared with DMSO vehicle
# Measured: 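Viability as fraction of non-targeting control plus robust z-score without drug; synergy scores compare knock-down plus drug against each alone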
# Scale: viability z-score, knock-down alone: higher = more viable cells than controls; viability fraction, knock-down alone: higher = more viable cells; synergy score with BYL719: higher = stronger combined killing with BYL719; synergy score with trametinib: higher = stronger combined killing with trametinib; synergy score with cetuximab: higher = stronger combined killing with cetuximab
# Hit rule: 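Essential when the siRNA-alone viability robust z-score is below -3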
# Calls: active = essential; inactive = no change
# The whole screen tested 794 reagents; shown is an unselected part. In the full data, 10 (1.3%) were called active. 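Calls reflect knock-down alone without drug; synergy scores with BYL719, cetuximab or trametinib do not affect calls.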 Viability is capped at 1. Reagent sequences are not shown. Not stated in the record: the amount of reagent, the time to read-out.
gene symbol,"viability z-score, knock-down alone","viability fraction, knock-down alone",synergy score with BYL719,synergy score with trametinib,synergy score with cetuximab,activity call
PRKAB1,0.00185,0.849,-0.0273,-0.0775,-0.0715,inactive
DNMT3A,-0.492,0.787,-0.146,-0.106,-0.0466,inactive
BMPR1B,0.724,0.94,-0.0886,0.0287,0.0293,inactive
TPK1,-0.182,0.826,0.00733,0.0804,0.0617,inactive
BMPR1A,-1.08,0.714,0.0209,0.0879,-0.00481,inactive
TP53BP1,-0.27,0.815,-0.0363,-0.00714,-0.0153,inactive
EIF2AK3,1.19,0.998,-0.064,-0.0247,-0.0449,inactive
LRRK1,-0.988,0.725,-0.101,0.0214,-0.0466,inactive
PI4KA,1.21,1,-0.109,0.107,-0.0413,inactive
BRAF,-1.48,0.663,0.0275,0.0771,-0.0287,inactive
ACSL6,-0.304,0.811,-0.12,-0.123,-0.172,inactive
CDK5R2,0.426,0.902,0.00577,-0.0867,-0.0184,inactive
GOLGA5,0.906,0.962,-0.101,0.0221,-0.077,inactive
ITSN1,-0.45,0.792,-0.0932,-0.00403,0.0671,inactive
HASPIN,-1.79,0.624,-0.136,0.0124,-0.0595,inactive
IRAK3,-1.22,0.695,0.0341,0.0399,-0.0426,inactive
PNCK,0.797,0.949,-0.155,0.00153,-0.0494,inactive
SMAD4,-0.045,0.843,0.0713,-0.0757,-0.0385,inactive
CDKN1A,1.21,1,-0.00905,-0.0398,-0.0177,inactive
IKBKB,0.809,0.95,-0.00379,0.162,0.0439,inactive
RPS6KC1,1.21,1,-0.103,0.0382,-0.0326,inactive
MAP3K10,0.426,0.902,-0.0718,0.00855,-0.0275,inactive
EPHA10,-1.7,0.635,-0.0901,0.169,-0.131,inactive
STKLD1,-0.403,0.798,0.0951,0.0865,-0.135,inactive
SOX9,0.277,0.884,-0.118,0.047,-0.155,inactive
MASTL,0.863,0.957,0.146,0.162,0.114,inactive
STK25,0.536,0.916,0.0303,0.231,-0.119,inactive
PTK6,-0.144,0.831,-0.0575,0.0102,0.00822,inactive

Reformatted: 5 of the entries above
gene symbol	viability z-score, knock-down alone	viability fraction, knock-down alone	synergy score with BYL719	synergy score with trametinib	synergy score with cetuximab	activity call
PI4KA	1.21	1	-0.109	0.107	-0.0413	inactive
BRAF	-1.48	0.663	0.0275	0.0771	-0.0287	inactive
ACSL6	-0.304	0.811	-0.12	-0.123	-0.172	inactive
CDK5R2	0.426	0.902	0.00577	-0.0867	-0.0184	inactive
GOLGA5	0.906	0.962	-0.101	0.0221	-0.077	inactive

More records follow:
gene symbol,"viability z-score, knock-down alone","viability fraction, knock-down alone",synergy score with BYL719,synergy score with trametinib,synergy score with cetuximab,activity call
CKMT1B,-0.206,0.823,-0.138,-0.0215,-0.163,inactive
CSNK1A1,1.07,0.982,0.0128,0.129,-0.0352,inactive
WNK1,-0.715,0.759,-0.113,-0.107,-0.191,inactive
WT1,0.00829,0.85,-0.0743,-0.0276,-0.0138,inactive
SPHK1,-0.512,0.785,-0.241,-0.0198,-0.192,inactive
WEE1,-2.78,0.5,-0.101,0.0315,0.0241,inactive
CPNE3,-1.31,0.684,0.00604,0.022,-0.129,inactive
RET,0.313,0.888,0.0575,0.104,0.0627,inactive
PFKM,-1.84,0.618,-0.0651,-0.107,-0.108,inactive
RPS6KB2,1.21,1,-0.108,-0.00117,-0.0432,inactive
MAPKAPK2,-0.302,0.811,0.107,0.0262,0.0323,inactive
TGFBR3,1.21,1,-0.076,-0.0755,-0.0432,inactive
NUP107,-3.29,0.436,-0.134,-0.0267,-0.0351,active
TEC,1.21,1,-0.0773,0.0725,-0.0432,inactive
CREBBP,-0.645,0.768,0.0346,-0.0179,0.00502,inactive
UCK1,1.21,1,-0.103,0.14,-0.00592,inactive
SGK1,0.0981,0.861,-0.0829,-0.0177,-0.114,inactive
PTPN11,-0.594,0.774,-0.109,-0.0232,-0.135,inactive
LYN,1.21,1,-0.0299,0.111,-0.0432,inactive
IDH2,-0.191,0.825,-0.169,-0.0482,-0.148,inactive
NME4,0.174,0.871,-0.0348,-0.0982,0.0149,inactive
FGR,-0.383,0.801,-0.0707,0.0852,-0.121,inactive
